# Experimental data as given in PubChem BioAssay AID624297 (National Center for Advancing Translational Sciences (NCATS), 2012).
# The whole screen tested about 340,000 compounds, of which about 6,200 (1.8%) were called active. Inconclusive means that the source gave no clear call. Such entries were picked first, then a sample of the others. Calls follow the shape of the dose curve; as a rule, active = well fitted activation curve with a large enough effect; inconclusive = small, poorly fitted or top-dose-only effect; inactive = no such curve, though single readings can be large or run the other way. Potencies of inconclusive entries are doubtful fits and often do not repeat.
# Assay: A quantitative high throughput screen for small molecules that induce DNA re-replication in SW480 colon adenocarcinoma cells. Also: nearly all actives have a fitted effect of over 55% in size. As to re-replication activation: % of control where 0% means no effect.
# Settings: Hoechst DNA content imaging, 48 h; re-replication activation: at 46.1 µM (top of the series)
# Method in brief: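 Image-based read-out: total Hoechst fluorescence of nuclei (405 nm excitation, 500-530 nm emission), with hits raising the fraction of high-intensity nuclei. SW480 colon cells incubated 48 hr with compounds at 37 C.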
# Potency is read from the fitted curve at half-maximal effect.
SMILES,Potency,re-replication activation
CCOc1cccc(C(=O)Nc2ccncc2)c1,"inconclusive: 20.6 µM [activator, single point]",
C=CCNS(=O)(=O)c1ccc(OC)c(C)c1,"inconclusive: 29.1 µM [activator, single point]",
N#Cc1cccc(C#N)c1NCC1CCCO1 (stereo not given),"inconclusive: 23.1 µM [activator, single point]",
COc1ccc(CNC(=O)COc2ccc(S(=O)(=O)N3CCCCC3)cc2)cc1,,inactive: 4.53%
CC1CCCC(C)N1CCOc1cc(N)ccc1C#N (stereo not given),,inactive: -7.75%
O=C(N/N=C\c1c(O)ccc2ccccc12)c1cncc(Br)c1,"inconclusive: 0.231 µM [activator, full curve, poor fit]",
Cc1onc(-c2c(F)cccc2Cl)c1C(=O)Nc1cccc(S(=O)(=O)N2CCCCC2)c1,"inconclusive: 1.64 µM [activator, partial curve, poor fit]",
O=C(c1ccc([N+](=O)[O-])o1)N1CCc2ccccc2C1,"inconclusive: 29.1 µM [activator, single point]",
Cc1ccc(O)c(C(CC(=O)NC2CCCCC2)c2ccccc2)c1 (stereo not given),"inconclusive: 23.1 µM [activator, single point]",
CC1CCN(C(=O)CN2C(=O)C(=O)N(C(C)C)C2=O)c2ccccc2S1 (stereo not given),,inactive: -12%
CCCCN1C(=O)C(C#N)CC2=C1CC(C)(C)CC2=O (stereo not given),,inactive: 5.43%
C=CC[N+]1(CC(=O)NCc2ccc(NC(C)=O)cc2)CCOCC1,,inactive: -6.62%
CCCCNC(=O)[C@@H]1CC=C[C@@H]2CCN(Cc3ccc(Cl)c(Cl)c3)C(=O)[C@@H]21,,inactive: 0.745%
COc1ccccc1CNC(=O)COC(=O)c1cccc(S(=O)(=O)N2CCOCC2)c1,"inconclusive: 29.1 µM [activator, single point]",
COc1ccc(N(CC(=O)Nc2ccccc2C(=O)NCC(C)C)S(C)(=O)=O)cc1,active: 18.4 µM,
O=C(NNC(=S)NC(=O)C12CC3CC(CC(C3)C1)C2)c1ccncc1,"inconclusive: 32.6 µM [activator, partial curve, poor fit]",
Cc1cccc2cc(CN(Cc3ccccc3)C(=O)N(C)C)c(=O)[nH]c12,,inactive: -7.2%
COc1ccc(S(=O)(=O)NCc2ccncc2)cc1NC(=O)c1ccccc1F,,inactive: -17.5%
Cc1ccc2c(c1)c(C)c(C)n2CC(O)CN1CCCCC1C (stereo not given),"inconclusive: 29.1 µM [activator, partial curve, poor fit]",
COC(=O)/C(=C\c1cc(OC)c(OC)c(OC)c1)c1nc2ccccc2[nH]1,"inconclusive: 29.1 µM [activator, single point]",
CN(Cc1ccccc1)C(=S)Nc1ccc(OC(F)F)cc1,,inactive: -5.4%
COc1ccc(C(=O)Nc2cccc(/C=C/c3nc4ccccc4c(=O)[nH]3)c2)cc1,"inconclusive: 20.6 µM [activator, single point]",
CN1/C(=C\C(=O)c2ccco2)C(C)(C)c2ccccc21,active: 23.1 µM,
NC(=O)COC(=O)c1c2c(nc3ccccc13)CCCC2,,inactive: -14.9%

SMILES,Potency,re-replication activation
CCN(CC)S(=O)(=O)c1ccccc1/C=N\O,,inactive: -10.2%
CCOC(=O)C1=C(COC(=O)c2ccc([N+](=O)[O-])o2)NC(=O)NC1C (stereo not given),,inactive: -23.1%
O=C(c1ccc(COc2ccccc2Cl)o1)N1CCN(Cc2ccc3c(c2)OCO3)CC1,inactive,
C/C(O)=c1/ccc2cccc3nc(C)nc1c23,"inconclusive: 18.4 µM [activator, single point]",
CCc1ccccc1NC(=O)CSC1=C(C#N)C(c2ccc(O)c(OC)c2)C2=C(CCCC2=O)N1 (stereo not given),"inconclusive: 29.1 µM [activator, single point]",
CCCCCCOC(=O)C1=C(C)NC(=O)NC1c1ccc2c(c1)OCO2 (stereo not given),"inconclusive: 14.6 µM [activator, single point]",
O=C(CSc1nnc(-c2n[nH]c3ccccc23)n1-c1ccccc1)Nc1ccccc1Cl,"inconclusive: 13 µM [activator, partial curve, poor fit]",
Cc1ccc(C)c(NC(=S)N(Cc2ccc(Cl)cc2)Cc2ccc(C(=O)O)cc2)c1,"inconclusive: 29.1 µM [activator, single point]",
COc1ccc(NS(=O)(=O)c2ccc3nc(COc4ccc5ccccc5c4)[nH]c3c2)cc1,"inconclusive: 16.4 µM [activator, partial curve]",
COCC(C)n1c(SCc2ccc(C(=O)OC)o2)nc2ccccc2c1=O (stereo not given),active: 18.4 µM,
CCN(C[C@H]1N[C@@](C)(C(=O)OC)[C@H]2C(=O)N(C)C(=O)[C@@H]12)C(=O)COc1ccccc1,,inactive: 0.151%
Cc1cc(C)n(-c2nnc(C)n2/N=C/c2cc(Br)ccc2OCc2ccccc2)n1,"inconclusive: 18.4 µM [activator, single point]",
O=C(CCc1ccccc1)Nc1ccc(S(=O)(=O)N2CCOCC2)cc1,"inconclusive: 16.4 µM [activator, single point]",
COC(=O)c1cc(NC(=O)c2cc(C(C)(C)C)nn2Cc2cccc(C)c2)ccc1N1CCOCC1,"inconclusive: 29.1 µM [activator, single point]",
CCOCCCNCc1ccc(OCc2ccccc2Cl)cc1,"inconclusive: 29.1 µM [activator, single point]",
COc1cc(C(=O)NC(=S)NC(C)C)cc(OC)c1OC,,inconclusive: -691% [activator]
CC1CCc2sc(C(=O)NNC(=O)c3ccncc3)cc2C1 (stereo not given),"inconclusive: 3.26 µM [activator, single point]",
O=C(Cc1ccccc1)N/N=C/c1cccs1,,inactive: -8.54%
Cc1ccc(NC(=S)N/C(=N/S(=O)(=O)c2ccccc2)c2ccccc2)cc1,"inconclusive: 0.092 µM [activator, partial curve, poor fit]",
CC(C)C(=O)Nc1nnc(CCc2ccccc2)s1,,inactive: -4.6%
COc1ccc(S(=O)(=O)N2CCOCC2)cc1NC(=O)CO/N=C/c1ccccc1OC(F)F,"inconclusive: 29.1 µM [activator, single point]",
CCC(NC(=O)Nc1nnc(C(F)(F)F)s1)(C(F)(F)F)C(F)(F)F,"inconclusive: 6.51 µM [activator, full curve]",
CCC(C)(C)NC(=O)CN(C(=O)CCC(=O)Nc1nccs1)c1ccc2c(c1)OCO2,"inconclusive: 11.2 µM [activator, single point]",
O=C(O)c1ccc(-c2sc(Nc3ccccc3)n[n+]2-c2ccc(F)cc2)cc1,,inactive: 4.73% [at 9.22 µM]

SMILES,Potency,re-replication activation
O=C(CN1C(=O)NC2(CCCCCCC2)C1=O)NCc1ccc(Cl)cc1,"inconclusive: 3.26 µM [activator, single point]",
CC(Oc1ccccc1)C(=O)Nc1nc2c(s1)C(=O)CC(C)(C)C2 (stereo not given),,inactive: -6.7%
Cc1ccc(OCc2cc(C(=O)N3CCCCCCC3)no2)cc1C,"inconclusive: 2.91 µM [activator, full curve, poor fit]",
NC(=O)Cc1ccc(C(=O)CSc2nnc(-c3ccncc3)n2C2CC2)s1,,inactive: -11.7%
Cc1ccc(N(C)S(=O)(=O)c2cccc(C(=O)NC3=NCCS3)c2)cc1,"inconclusive: 16.4 µM [activator, partial curve, poor fit]",
O=C(Cn1nc(-c2ccccc2)c2ccccc2c1=O)Nc1ccc(O)cc1,,inactive: 2.73%
COc1ccc(-c2nc3ccc(C(=O)NCC(OC)OC)cc3nc2-c2ccc(OC)cc2)cc1,"inconclusive: 23.1 µM [activator, single point]",
N#Cc1c(NC(=O)/C=C/c2ccco2)sc2c1CCCC2,"inconclusive: 0.231 µM [activator, full curve, poor fit]",
COc1ccc2[nH]c3c(c2c1)CCN1C(=O)N([C@@H](C)C(=O)NC2CCN(Cc4ccccc4)CC2)C(=O)[C@]31C,"inconclusive: 0.058 µM [activator, full curve, poor fit]",
CCCN(CC(=O)Nc1cc(Cl)ccc1Cl)C(=O)c1ccc2n[nH]nc2c1,,inactive: -4.29%
CCn1cc(CN2CCC(C(=O)Nc3cccc(-c4cccc(Cl)c4)c3)CC2)c(C)n1,"inconclusive: 20.6 µM [activator, partial curve, poor fit]",
Cc1ccc(-c2nc3ccc(Cl)cc3c(=O)n2O)cc1,"inconclusive: 29.1 µM [activator, single point]",
Nc1nc(=S)c2[nH]cnc2[nH]1,,inactive: 18.5%
C[N+](C)(C)C(Cc1ccccc1)C(=O)[O-] (stereo not given),"inconclusive: 6.51 µM [activator, single point]",
O=C(Nc1ccc(N2CCN(C(=O)c3cccs3)CC2)cc1)c1cccc(F)c1,"inconclusive: 29.1 µM [activator, single point]",
Cc1ccccc1OCC(=O)OCC(=O)Nc1ncc(Cl)c(C)c1Cl,"inconclusive: 18.4 µM [activator, single point]",
COC(=O)[C@H](C)NC(=O)c1cc2c(cn1)[nH]c1ccccc12,,inactive: 0.173%
O=c1c2cc(O)c(O)cc2oc2cc(O)c(C3OC(CO)C(O)C(O)C3O)c(O)c12 (stereo not given),"inconclusive: 6.51 µM [activator, single point]",
CCc1ccc(C(C)NC(=O)COC(=O)c2ccc(-n3cnnn3)cc2)cc1 (stereo not given),,inactive: 0.958%
CCN(CC(=O)Nc1cccc(OC)c1)CC(=O)Nc1ccc(Br)c(C)c1,,inactive: -6.12%
O=C1CC(=C(c2ccccc2)c2ccccc2)C(=O)N1CCCCN1CCN(c2ccccc2)CC1,"inconclusive: 32.6 µM [activator, partial curve, poor fit]",
Cc1cc(C(=O)N2CCc3ccccc32)n(-c2ccccc2)n1,"inconclusive: 18.4 µM [activator, single point]",

# Single records (already shown).
# Cc1ccccc1OCC(=O)OCC(=O)Nc1ncc(Cl)c(C)c1Cl as listed: Potency: inconclusive: 18.4 µM [activator, single point]
# CCOc1cccc(C(=O)Nc2ccncc2)c1 as listed: Potency: inconclusive: 20.6 µM [activator, single point]
# CC1CCN(C(=O)CN2C(=O)C(=O)N(C(C)C)C2=O)c2ccccc2S1 (stereo not given) as listed: re-replication activation: inactive: -12%
